Test results published in the supplement of paper PMC10849652.
The list shows a part of the results.

Protein sequences, listed by entry. Tags and fused reporters are not part of them. Lines headed by an entry give the natural chain unless they say otherwise; changes in a name come on top.
UniProt P49585: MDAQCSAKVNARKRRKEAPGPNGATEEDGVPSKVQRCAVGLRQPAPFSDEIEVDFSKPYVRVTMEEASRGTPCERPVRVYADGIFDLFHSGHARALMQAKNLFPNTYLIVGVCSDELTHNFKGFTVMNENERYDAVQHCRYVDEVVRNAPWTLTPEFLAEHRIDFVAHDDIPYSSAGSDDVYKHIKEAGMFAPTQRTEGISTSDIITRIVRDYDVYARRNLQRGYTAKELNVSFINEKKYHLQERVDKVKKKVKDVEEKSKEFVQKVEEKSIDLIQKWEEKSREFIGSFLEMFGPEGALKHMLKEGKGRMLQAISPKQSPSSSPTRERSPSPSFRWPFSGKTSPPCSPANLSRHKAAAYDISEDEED
UniProt Q9H4Z3: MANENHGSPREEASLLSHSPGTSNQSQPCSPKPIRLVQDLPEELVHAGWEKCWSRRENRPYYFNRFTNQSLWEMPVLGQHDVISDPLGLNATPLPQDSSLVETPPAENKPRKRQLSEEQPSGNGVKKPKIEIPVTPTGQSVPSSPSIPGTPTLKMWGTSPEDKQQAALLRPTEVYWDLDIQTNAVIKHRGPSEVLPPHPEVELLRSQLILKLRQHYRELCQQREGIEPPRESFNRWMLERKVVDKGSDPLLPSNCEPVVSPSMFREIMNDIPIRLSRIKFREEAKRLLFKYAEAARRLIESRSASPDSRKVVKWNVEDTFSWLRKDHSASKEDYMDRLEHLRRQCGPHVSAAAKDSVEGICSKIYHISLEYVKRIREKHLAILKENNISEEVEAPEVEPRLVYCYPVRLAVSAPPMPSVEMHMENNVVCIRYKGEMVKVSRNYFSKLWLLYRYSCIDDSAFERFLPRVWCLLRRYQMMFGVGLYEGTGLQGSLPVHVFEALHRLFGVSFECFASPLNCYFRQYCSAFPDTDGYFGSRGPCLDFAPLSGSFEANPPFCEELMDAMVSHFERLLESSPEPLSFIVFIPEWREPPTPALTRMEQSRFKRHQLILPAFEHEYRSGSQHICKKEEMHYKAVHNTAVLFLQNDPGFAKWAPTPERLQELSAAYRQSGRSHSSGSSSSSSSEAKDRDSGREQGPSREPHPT
UniProt Q9Y5K3: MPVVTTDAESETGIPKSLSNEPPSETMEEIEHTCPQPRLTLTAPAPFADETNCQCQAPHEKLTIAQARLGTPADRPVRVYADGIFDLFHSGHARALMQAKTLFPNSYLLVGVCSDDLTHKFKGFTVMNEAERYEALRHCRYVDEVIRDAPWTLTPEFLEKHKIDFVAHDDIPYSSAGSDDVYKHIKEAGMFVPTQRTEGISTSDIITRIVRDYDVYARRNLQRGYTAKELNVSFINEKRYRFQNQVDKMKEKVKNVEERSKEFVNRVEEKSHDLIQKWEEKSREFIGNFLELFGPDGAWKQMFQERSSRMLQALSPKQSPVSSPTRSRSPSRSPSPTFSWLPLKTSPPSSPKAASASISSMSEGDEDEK
UniProt O43924: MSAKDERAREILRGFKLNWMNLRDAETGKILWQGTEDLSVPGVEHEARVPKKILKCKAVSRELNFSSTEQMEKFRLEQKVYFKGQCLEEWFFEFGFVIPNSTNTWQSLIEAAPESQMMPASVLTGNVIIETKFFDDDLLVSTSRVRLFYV
UniProt Q6VY07, whole entry, looked up: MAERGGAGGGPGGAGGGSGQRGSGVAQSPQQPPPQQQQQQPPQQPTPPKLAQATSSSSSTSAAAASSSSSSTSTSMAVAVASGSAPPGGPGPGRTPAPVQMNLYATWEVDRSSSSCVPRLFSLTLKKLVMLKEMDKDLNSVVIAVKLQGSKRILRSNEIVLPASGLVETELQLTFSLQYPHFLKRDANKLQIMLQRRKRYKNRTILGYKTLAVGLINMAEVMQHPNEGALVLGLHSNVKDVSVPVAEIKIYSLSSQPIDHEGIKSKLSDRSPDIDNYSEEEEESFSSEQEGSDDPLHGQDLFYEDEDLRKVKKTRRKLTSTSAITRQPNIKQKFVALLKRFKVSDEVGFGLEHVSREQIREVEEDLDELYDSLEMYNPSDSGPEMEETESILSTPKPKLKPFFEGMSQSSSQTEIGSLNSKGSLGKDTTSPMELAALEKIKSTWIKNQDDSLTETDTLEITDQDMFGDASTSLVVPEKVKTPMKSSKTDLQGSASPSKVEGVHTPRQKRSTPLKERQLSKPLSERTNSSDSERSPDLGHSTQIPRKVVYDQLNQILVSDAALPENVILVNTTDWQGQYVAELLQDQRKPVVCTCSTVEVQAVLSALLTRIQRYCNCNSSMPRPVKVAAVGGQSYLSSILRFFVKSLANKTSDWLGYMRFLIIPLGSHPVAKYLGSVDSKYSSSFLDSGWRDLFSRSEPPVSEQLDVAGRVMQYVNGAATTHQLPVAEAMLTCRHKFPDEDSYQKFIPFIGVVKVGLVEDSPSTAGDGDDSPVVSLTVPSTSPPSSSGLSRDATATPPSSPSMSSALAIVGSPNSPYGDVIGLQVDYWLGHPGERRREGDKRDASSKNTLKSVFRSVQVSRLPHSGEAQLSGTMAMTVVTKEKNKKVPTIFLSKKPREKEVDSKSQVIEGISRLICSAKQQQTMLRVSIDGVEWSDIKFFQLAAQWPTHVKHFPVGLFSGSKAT
UniProt O00408, whole entry, looked up: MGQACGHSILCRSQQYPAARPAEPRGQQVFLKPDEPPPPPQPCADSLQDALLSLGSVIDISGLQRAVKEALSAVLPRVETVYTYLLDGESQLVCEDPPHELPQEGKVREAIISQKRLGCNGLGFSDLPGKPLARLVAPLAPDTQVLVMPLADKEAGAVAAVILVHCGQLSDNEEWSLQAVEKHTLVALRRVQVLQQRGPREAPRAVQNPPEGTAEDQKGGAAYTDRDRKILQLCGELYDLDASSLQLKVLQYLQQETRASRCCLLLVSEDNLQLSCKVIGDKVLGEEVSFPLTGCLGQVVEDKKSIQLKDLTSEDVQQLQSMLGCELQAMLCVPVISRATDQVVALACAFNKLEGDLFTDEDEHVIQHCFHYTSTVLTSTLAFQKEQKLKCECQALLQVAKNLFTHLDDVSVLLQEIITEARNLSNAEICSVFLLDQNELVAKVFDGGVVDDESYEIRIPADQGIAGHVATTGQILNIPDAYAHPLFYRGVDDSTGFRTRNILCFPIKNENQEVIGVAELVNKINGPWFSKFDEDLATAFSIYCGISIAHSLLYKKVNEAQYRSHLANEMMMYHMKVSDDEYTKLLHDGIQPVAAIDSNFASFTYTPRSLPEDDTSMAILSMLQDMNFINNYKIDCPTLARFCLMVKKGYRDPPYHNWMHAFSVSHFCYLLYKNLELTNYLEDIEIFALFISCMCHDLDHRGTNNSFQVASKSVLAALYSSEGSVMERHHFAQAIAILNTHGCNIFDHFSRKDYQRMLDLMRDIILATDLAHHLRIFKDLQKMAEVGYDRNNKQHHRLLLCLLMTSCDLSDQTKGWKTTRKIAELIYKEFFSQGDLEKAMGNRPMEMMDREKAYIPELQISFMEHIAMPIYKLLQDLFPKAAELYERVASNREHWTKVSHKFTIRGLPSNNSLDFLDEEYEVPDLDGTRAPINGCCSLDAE
UniProt Q9UBV8: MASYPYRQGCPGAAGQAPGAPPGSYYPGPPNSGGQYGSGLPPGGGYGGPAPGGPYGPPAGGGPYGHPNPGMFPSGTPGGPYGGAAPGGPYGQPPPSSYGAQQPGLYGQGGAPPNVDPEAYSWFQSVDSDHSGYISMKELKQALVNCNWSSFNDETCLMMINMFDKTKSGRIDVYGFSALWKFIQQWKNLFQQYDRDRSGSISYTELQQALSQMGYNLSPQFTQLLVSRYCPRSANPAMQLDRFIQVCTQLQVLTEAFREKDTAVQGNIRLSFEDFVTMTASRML
UniProt Q15121, whole entry, looked up: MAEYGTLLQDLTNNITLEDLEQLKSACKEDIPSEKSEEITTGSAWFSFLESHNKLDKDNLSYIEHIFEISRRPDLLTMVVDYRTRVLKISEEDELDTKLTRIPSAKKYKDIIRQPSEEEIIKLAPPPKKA
UniProt P09874, whole entry, looked up: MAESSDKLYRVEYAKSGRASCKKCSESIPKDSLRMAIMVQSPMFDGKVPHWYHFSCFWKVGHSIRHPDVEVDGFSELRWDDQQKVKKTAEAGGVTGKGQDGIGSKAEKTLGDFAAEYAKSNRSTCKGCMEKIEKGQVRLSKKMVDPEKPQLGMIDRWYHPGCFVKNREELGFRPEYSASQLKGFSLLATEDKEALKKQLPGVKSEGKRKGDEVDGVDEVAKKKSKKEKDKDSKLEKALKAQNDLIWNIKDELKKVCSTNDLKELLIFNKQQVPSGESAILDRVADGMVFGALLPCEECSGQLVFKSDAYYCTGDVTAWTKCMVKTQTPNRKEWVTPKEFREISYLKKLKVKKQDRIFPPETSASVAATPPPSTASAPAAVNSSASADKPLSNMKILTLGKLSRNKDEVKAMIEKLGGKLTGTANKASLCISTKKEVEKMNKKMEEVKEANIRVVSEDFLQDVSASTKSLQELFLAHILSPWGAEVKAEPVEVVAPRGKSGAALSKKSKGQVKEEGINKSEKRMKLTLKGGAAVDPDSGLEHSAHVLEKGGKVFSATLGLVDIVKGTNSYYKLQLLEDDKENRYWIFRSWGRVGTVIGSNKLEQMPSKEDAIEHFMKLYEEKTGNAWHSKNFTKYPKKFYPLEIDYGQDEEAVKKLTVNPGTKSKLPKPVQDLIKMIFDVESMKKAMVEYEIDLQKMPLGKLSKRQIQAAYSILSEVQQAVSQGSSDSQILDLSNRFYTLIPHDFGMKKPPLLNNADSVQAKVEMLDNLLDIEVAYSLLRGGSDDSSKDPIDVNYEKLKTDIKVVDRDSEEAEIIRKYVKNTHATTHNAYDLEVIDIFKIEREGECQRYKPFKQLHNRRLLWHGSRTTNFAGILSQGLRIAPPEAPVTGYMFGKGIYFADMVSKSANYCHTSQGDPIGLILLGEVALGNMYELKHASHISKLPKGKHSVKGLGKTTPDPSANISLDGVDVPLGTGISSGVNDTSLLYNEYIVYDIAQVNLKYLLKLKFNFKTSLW
UniProt Q5EBL8: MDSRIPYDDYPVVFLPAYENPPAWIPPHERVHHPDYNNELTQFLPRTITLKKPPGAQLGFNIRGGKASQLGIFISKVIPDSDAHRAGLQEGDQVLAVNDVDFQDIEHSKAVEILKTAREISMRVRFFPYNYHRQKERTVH
UniProt Q6L8Q7: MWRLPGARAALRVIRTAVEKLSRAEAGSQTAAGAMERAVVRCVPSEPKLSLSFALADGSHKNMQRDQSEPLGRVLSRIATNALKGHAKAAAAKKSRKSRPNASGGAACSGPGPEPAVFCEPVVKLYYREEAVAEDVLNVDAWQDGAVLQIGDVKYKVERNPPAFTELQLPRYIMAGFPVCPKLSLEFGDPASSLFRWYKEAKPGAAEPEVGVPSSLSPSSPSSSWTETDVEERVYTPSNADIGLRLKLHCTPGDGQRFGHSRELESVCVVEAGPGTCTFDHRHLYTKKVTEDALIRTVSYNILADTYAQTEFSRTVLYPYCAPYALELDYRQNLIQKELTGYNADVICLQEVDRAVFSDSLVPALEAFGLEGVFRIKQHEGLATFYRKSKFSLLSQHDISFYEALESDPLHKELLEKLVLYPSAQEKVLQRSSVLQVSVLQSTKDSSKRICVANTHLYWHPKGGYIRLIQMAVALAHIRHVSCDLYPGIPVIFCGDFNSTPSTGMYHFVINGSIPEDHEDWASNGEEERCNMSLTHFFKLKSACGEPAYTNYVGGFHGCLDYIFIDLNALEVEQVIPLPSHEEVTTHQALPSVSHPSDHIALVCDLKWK
UniProt Q96KB5: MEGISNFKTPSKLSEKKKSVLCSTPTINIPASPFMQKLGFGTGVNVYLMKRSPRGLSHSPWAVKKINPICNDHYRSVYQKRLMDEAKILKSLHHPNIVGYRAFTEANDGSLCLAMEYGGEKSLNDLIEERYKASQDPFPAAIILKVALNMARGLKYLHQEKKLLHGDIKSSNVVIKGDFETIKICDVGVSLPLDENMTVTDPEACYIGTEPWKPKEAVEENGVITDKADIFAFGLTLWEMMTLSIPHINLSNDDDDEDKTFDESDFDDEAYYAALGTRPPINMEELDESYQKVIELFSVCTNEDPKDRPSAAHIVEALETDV

Tests used:
Experiment in all cases: log2 fold change, soluble protein after heating vs DMSO (PISA); higher = thermal stabilisation; K562 cells, 10 uM, 30 min; active = over 0.2 and 3.5 SD of the protein, either way, in both replicates (recomputed)
saracatinib = compound: CN1CCN(CCOc2cc(OC3CCOCC3)c3c(Nc4c(Cl)ccc5c4OCO5)ncnc3c2)CC1 [saracatinib]
Summary of the method: (§1)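 Values are thermal stability changes relative to control samples and are taken from duplicates. They are stated as log2 fold changes. Before quantification by TMTpro 16plex LC-MS/MS with equalised channel sums, K562 cells at 2×10^6 cells/mL were treated with 10 μM compound for 30 min, heated in aliquots for 3 min across 48°C-58°C, pooled, extracted in PBS with 0.5% NP-40 at 4°C, and centrifuged at 21,000xg for 90 min to give the soluble supernatant.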

sotrastaurin = compound: CN1CCN(c2nc(C3=C(c4c[nH]c5ccccc45)C(=O)NC3=O)c3ccccc3n2)CC1 [sotrastaurin]
Summary of the method: as §1

Tubastatin A = compound: CN1CCc2c(c3ccccc3n2Cc2ccc(C(=O)NO)cc2)C1 [Tubastatin A]
Summary of the method: as §1

[1] = compound: CNC(=O)C1=CC=CC=C1NC2=NC(=NC=C2Cl)NC3=C(C=C(C=C3)N4CCOCC4)OC
Summary of the method: as §1

defactinib = compound: CNC(=O)c1ccc(Nc2ncc(C(F)(F)F)c(NCc3nccnc3N(C)S(C)(=O)=O)n2)cc1 [defactinib]
Summary of the method: as §1

rucaparib = compound: CNCc1ccc(-c2[nH]c3cc(F)cc4c3c2CCNC4=O)cc1 [rucaparib]
Summary of the method: as §1

[2] = compound: CNc1nc(-c2ccc3c(N)n[nH]c3c2)cc(N2C[C@@H](C(=O)NC3CCCCC3)CC[C@H]2C)n1
Summary of the method: as §1

encorafenib = compound: COC(=O)N[C@@H](C)CNc1nccc(-c2cn(C(C)C)nc2-c2cc(Cl)cc(NS(C)(=O)=O)c2F)n1 [encorafenib]
Summary of the method: as §1

[3] = compound: COC(=O)[C@H](CCSC)NC(=O)C1=C(C=C(C=C1)NC[C@H](CS)N)C2=CC=CC=C2
Summary of the method: as §1

[4] = compound: COC1=CC=C(C=C1)CN2C=CC3=C2C=C(C=C3)C(=O)NO
Summary of the method: as §1

filanesib = compound: CON(C)C(=O)N1N=C(c2cc(F)ccc2F)S[C@@]1(CCCN)c1ccccc1 [filanesib]
Summary of the method: as §1

zotarolimus = compound: CO[C@H]1C[C@@H]2CC[C@@H](C)[C@@](O)(O2)C(=O)C(=O)N2CCCC[C@H]2C(=O)O[C@H]([C@H](C)C[C@@H]2CC[C@H](n3cnnn3)[C@H](OC)C2)CC(=O)[C@H](C)/C=C(\C)[C@@H](O)[C@@H](OC)C(=O)[C@H](C)C[C@H](C)/C=C/C=C/C=C/1C [zotarolimus]
Summary of the method: as §1

idasanutlin = compound: COc1cc(C(=O)O)ccc1NC(=O)[C@@H]1N[C@@H](CC(C)(C)C)[C@](C#N)(c2ccc(Cl)cc2F)[C@H]1c1cccc(Cl)c1F [idasanutlin]
Summary of the method: as §1

alisertib = compound: COc1cc(Nc2ncc3c(n2)-c2ccc(Cl)cc2C(c2c(F)cccc2OC)=NC3)ccc1C(=O)O [alisertib]
Summary of the method: as §1

[5] = compound: COc1cc2nc(-c3cc(F)ccc3O)nc(N[C@@H]3CNC[C@H]3C(C)(C)O)c2cc1OC
Summary of the method: as §1

gefitinib = compound: COc1cc2ncnc(Nc3ccc(F)c(Cl)c3)c2cc1OCCCN1CCOCC1 [gefitinib]
Summary of the method: as §1

[6] = compound: COc1cccc2cc(-c3nc([C@H]4CC[C@H](C(=O)O)CC4)n4ncnc(N)c34)[nH]c12
Summary of the method: as §1

lapatinib = compound: CS(=O)(=O)CCNCc1ccc(-c2ccc3ncnc(Nc4ccc(OCc5cccc(F)c5)c(Cl)c4)c3c2)o1 [lapatinib]
Summary of the method: as §1

pictilisib = compound: CS(=O)(=O)N1CCN(Cc2cc3nc(-c4cccc5[nH]ncc45)nc(N4CCOCC4)c3s2)CC1 [pictilisib]
Summary of the method: as §1

PCYT1A (UniProt P49585)
log2 fold change (saracatinib): inactive: -0.014
log2 fold change (sotrastaurin): inactive: -0.105
log2 fold change (Tubastatin A): inactive: 0.013
log2 fold change [1]: inactive: 0.032
log2 fold change (defactinib): inactive: -0.186
log2 fold change (rucaparib): inactive: -0.127
log2 fold change [2]: inactive: -0.097
log2 fold change (encorafenib): inactive: -0.001
log2 fold change [3]: inactive: -0.02
log2 fold change [4]: inactive: 0.006
log2 fold change (filanesib): inactive: -0.005
log2 fold change (zotarolimus): inactive: 0.035
log2 fold change (idasanutlin): inactive: -0.015
log2 fold change (alisertib): inactive: 0.025
log2 fold change [5]: inactive: -0.05
log2 fold change (gefitinib): inactive: -0.012
log2 fold change [6]: inactive: -0.037
log2 fold change (lapatinib): inactive: 0.018
log2 fold change (pictilisib): inactive: 0.03

PCIF1 (UniProt Q9H4Z3)
log2 fold change (saracatinib): inactive: 0.062
log2 fold change (sotrastaurin): inactive: -0.021
log2 fold change (Tubastatin A): inactive: -0.004
log2 fold change [1]: inactive: 0.081
log2 fold change (defactinib): inactive: -0.148
log2 fold change [2]: inactive: 0.118
log2 fold change [3]: inactive: -0.04
log2 fold change [4]: inactive: -0.283
log2 fold change (filanesib): inactive: 0.115
log2 fold change (idasanutlin): inactive: 0.031
log2 fold change (alisertib): inactive: 0.02
log2 fold change (gefitinib): inactive: 0.026
log2 fold change [6]: inactive: 0.079
log2 fold change (pictilisib): inactive: -0.031

PCYT1B (UniProt Q9Y5K3)
log2 fold change (saracatinib): inactive: 0.133
log2 fold change (sotrastaurin): inactive: -0.13
log2 fold change (Tubastatin A): inactive: -0.028
log2 fold change [1]: inactive: -0.028
log2 fold change (defactinib): inactive: -0.162
log2 fold change (rucaparib): inactive: -0.139
log2 fold change [2]: inactive: -0.036
log2 fold change (encorafenib): inactive: 0.04
log2 fold change [3]: inactive: -0.029
log2 fold change [4]: inactive: 0.005
log2 fold change (filanesib): inactive: 0.026
log2 fold change (zotarolimus): inactive: 0
log2 fold change (idasanutlin): inactive: -0.029
log2 fold change (alisertib): inactive: -0.156
log2 fold change [5]: inactive: 0.131
log2 fold change (gefitinib): inactive: -0.051
log2 fold change [6]: inactive: 0.018
log2 fold change (lapatinib): inactive: -0.019
log2 fold change (pictilisib): inactive: -0.12

PDE6D (UniProt O43924)
log2 fold change (saracatinib): inactive: -0.074
log2 fold change (sotrastaurin): inactive: 0.035
log2 fold change (Tubastatin A): inactive: 0.029
log2 fold change [1]: inactive: -0.102
log2 fold change (defactinib): inactive: -0.043
log2 fold change [2]: inactive: 0.119
log2 fold change [3]: inactive: 0.068
log2 fold change [4]: inactive: -0.036
log2 fold change (filanesib): inactive: 0.101
log2 fold change (zotarolimus): inactive: -0.179
log2 fold change (idasanutlin): inactive: -0.092
log2 fold change (alisertib): inactive: -0.031
log2 fold change (gefitinib): inactive: 0.076
log2 fold change [6]: inactive: 0.002
log2 fold change (pictilisib): inactive: 0.078

PACS1 (UniProt Q6VY07)
log2 fold change (saracatinib): inactive: -0.018
log2 fold change (sotrastaurin): inactive: -0.043
log2 fold change (Tubastatin A): inactive: 0.038
log2 fold change [1]: inactive: -0.076
log2 fold change (defactinib): inactive: -0.045
log2 fold change (rucaparib): inactive: 0.022
log2 fold change [2]: inactive: 0.037
log2 fold change (encorafenib): inactive: -0.01
log2 fold change [3]: inactive: -0.018
log2 fold change [4]: inactive: 0.105
log2 fold change (filanesib): inactive: 0.047
log2 fold change (zotarolimus): inactive: 0.008
log2 fold change (idasanutlin): inactive: -0.005
log2 fold change (alisertib): inactive: 0.006
log2 fold change [5]: inactive: 0.054
log2 fold change (gefitinib): inactive: 0.043
log2 fold change [6]: inactive: 0.002
log2 fold change (lapatinib): inactive: 0.013
log2 fold change (pictilisib): inactive: 0.021

PDE2A (UniProt O00408)
log2 fold change (saracatinib): inactive: -0.011
log2 fold change (sotrastaurin): inactive: -0.005
log2 fold change (Tubastatin A): inactive: 0.208
log2 fold change [1]: inactive: 0.01
log2 fold change (defactinib): inactive: -0.094
log2 fold change (rucaparib): inactive: -0.051
log2 fold change [2]: inactive: -0.065
log2 fold change (encorafenib): inactive: -0.064
log2 fold change [3]: inactive: -0.042
log2 fold change [4]: inactive: 0.172
log2 fold change (filanesib): inactive: -0.118
log2 fold change (zotarolimus): inactive: 0.001
log2 fold change (idasanutlin): inactive: -0.089
log2 fold change (alisertib): inactive: -0.053
log2 fold change [5]: inactive: 0.134
log2 fold change (gefitinib): inactive: -0.004
log2 fold change [6]: inactive: 0.027
log2 fold change (lapatinib): inactive: -0.014
log2 fold change (pictilisib): inactive: 0.148

PEF1 (UniProt Q9UBV8)
log2 fold change (saracatinib): inactive: 0
log2 fold change (sotrastaurin): inactive: 0.053
log2 fold change (Tubastatin A): inactive: -0.004
log2 fold change [1]: inactive: 0.049
log2 fold change (defactinib): inactive: -0.01
log2 fold change (rucaparib): inactive: -0.019
log2 fold change [2]: inactive: -0.014
log2 fold change (encorafenib): inactive: -0.025
log2 fold change [3]: inactive: -0.003
log2 fold change [4]: inactive: -0.009
log2 fold change (filanesib): inactive: -0.038
log2 fold change (zotarolimus): inactive: 0.041
log2 fold change (idasanutlin): inactive: -0.009
log2 fold change (alisertib): inactive: -0.008
log2 fold change [5]: inactive: -0.089
log2 fold change (gefitinib): inactive: -0.011
log2 fold change [6]: inactive: 0.058
log2 fold change (lapatinib): inactive: 0.032
log2 fold change (pictilisib): inactive: -0.076

PEA15 isoform 2 (UniProt Q15121)
log2 fold change (saracatinib): inactive: 0.05
log2 fold change (sotrastaurin): inactive: -0.02
log2 fold change (Tubastatin A): inactive: -0.009
log2 fold change [1]: inactive: -0.147
log2 fold change (defactinib): inactive: -0.026
log2 fold change (rucaparib): inactive: -0.037
log2 fold change [2]: inactive: 0.009
log2 fold change (encorafenib): inactive: 0.035
log2 fold change [3]: inactive: 0.034
log2 fold change [4]: inactive: 0.011
log2 fold change (filanesib): inactive: -0.079
log2 fold change (zotarolimus): inactive: 0.05
log2 fold change (idasanutlin): inactive: -0.02
log2 fold change (alisertib): inactive: -0.047
log2 fold change [5]: inactive: -0.009
log2 fold change (gefitinib): inactive: 0
log2 fold change [6]: inactive: -0.015
log2 fold change (lapatinib): inactive: -0.003
log2 fold change (pictilisib): inactive: 0.03

PARP1 (UniProt P09874)
log2 fold change (saracatinib): inactive: -0.025
log2 fold change (sotrastaurin): inactive: -0.104
log2 fold change (Tubastatin A): inactive: 0.037
log2 fold change [1]: inactive: 0.094
log2 fold change (defactinib): inactive: -0.089
log2 fold change (rucaparib): active: 1.05
log2 fold change [2]: inactive: 0.038
log2 fold change (encorafenib): inactive: 0.079
log2 fold change [3]: inactive: -0.04
log2 fold change [4]: inactive: 0.091
log2 fold change (filanesib): inactive: -0.043
log2 fold change (zotarolimus): inactive: 0.048
log2 fold change (idasanutlin): inactive: -0.047
log2 fold change (alisertib): inactive: 0.039
log2 fold change [5]: inactive: 0.147
log2 fold change (gefitinib): inactive: 0.062
log2 fold change [6]: inactive: -0.062
log2 fold change (lapatinib): inactive: -0.082
log2 fold change (pictilisib): inactive: 0.008

PDZD11 isoform 2 (UniProt Q5EBL8)
log2 fold change (saracatinib): inactive: -0.068
log2 fold change (sotrastaurin): inactive: -0.055
log2 fold change (Tubastatin A): inactive: 0.122
log2 fold change [1]: inactive: 0.083
log2 fold change (defactinib): inactive: 0.014
log2 fold change (rucaparib): inactive: 0.063
log2 fold change [2]: inactive: -0.19
log2 fold change (encorafenib): inactive: 0.007
log2 fold change [3]: inactive: -0.032
log2 fold change [4]: inactive: 0.003
log2 fold change (filanesib): inactive: 0.066
log2 fold change (alisertib): inactive: 0.007
log2 fold change [5]: inactive: 0.08
log2 fold change (gefitinib): inactive: 0.069
log2 fold change [6]: inactive: -0.114
log2 fold change (lapatinib): inactive: 0.025
log2 fold change (pictilisib): inactive: -0.002

PDE12 (UniProt Q6L8Q7)
log2 fold change (saracatinib): inactive: 0.014
log2 fold change (sotrastaurin): inactive: 0.018
log2 fold change (Tubastatin A): inactive: 0.01
log2 fold change [1]: inactive: 0.028
log2 fold change (defactinib): inactive: -0.04
log2 fold change (rucaparib): inactive: -0.005
log2 fold change [2]: inactive: 0.023
log2 fold change (encorafenib): inactive: -0.019
log2 fold change [3]: inactive: 0.007
log2 fold change [4]: active: 0.359
log2 fold change (filanesib): inactive: -0.052
log2 fold change (zotarolimus): inactive: 0.044
log2 fold change (idasanutlin): inactive: -0.052
log2 fold change (alisertib): inactive: -0.051
log2 fold change [5]: inactive: 0.014
log2 fold change (gefitinib): inactive: -0.01
log2 fold change [6]: inactive: -0.003
log2 fold change (lapatinib): inactive: -0.007
log2 fold change (pictilisib): inactive: 0.074

PBK (UniProt Q96KB5)
log2 fold change (saracatinib): inactive: 0.01
log2 fold change (sotrastaurin): inactive: -0.205
log2 fold change (Tubastatin A): inactive: 0.089
log2 fold change [1]: inactive: 0.093
log2 fold change (defactinib): inactive: -0.15
log2 fold change (rucaparib): inactive: 0.187
log2 fold change [2]: inactive: 0.005
log2 fold change (encorafenib): inactive: 0.198
log2 fold change [3]: inactive: -0.111
log2 fold change [4]: inactive: -0.01
log2 fold change (filanesib): inactive: 0.056
log2 fold change (zotarolimus): inactive: 0.112
log2 fold change (idasanutlin): inactive: 0.027
log2 fold change (alisertib): inactive: -0.032
log2 fold change [5]: inactive: 0.014
log2 fold change (gefitinib): inactive: 0.084
log2 fold change [6]: inactive: -0.169
log2 fold change (lapatinib): inactive: -0.001
log2 fold change (pictilisib): inactive: 0.086
